# Values joined by “and” are separate entries in the source; they are usually repeats but may differ in a detail not shown here. Equal entries are not always repeated. The campaign covered roughly 400,000 compounds. About 5,500 (1.4%) were called active. Inconclusive results, whose numbers are uncertain, are shown with a selection of clear calls. The call rests on the fitted dose curve; in most records, active means well fitted cell-killing curve with a large enough effect; inconclusive means small, poorly fitted or top-dose-only effect, or effect the other way; inactive means flat fitted curve, though single readings scatter. Potencies of inconclusive entries are doubtful fits and often do not repeat.
# Test: qHTS assay for MDR1-selective chemotherapeutics: Primary screen using the parental adenocarcinoma cell KB-3-1; further: nearly all actives have a fitted effect of over 60% in size
# Settings: KB-3-1 viability, CellTiter-Glo ATP luminescence, 72 h; activity change, negative = cytotoxic: at 46.1 µM (top of the series)
# Outline: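 KB-3-1 parental drug-naive adenocarcinoma cells in DMEM/10% FBS, incubated 72 h at 37 C with pin-transferred compounds across a concentration series. Viability by CellTiter-Glo luminescence; concentration-response curves fitted after normalization.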
# On the % scale 0 is the no-effect control and ±100 the full control effect; potency means the concentration at half of the fitted maximal effect.
Structure (SMILES),Potency,"activity change, negative = cytotoxic"
Cc1nc(CN(C)C(=O)c2cc(COc3ccc4ncccc4c3)on2)cs1,"inconclusive: 1.84 µM [cytotoxic, partial curve, poor fit]",
C=CCOC(=O)C1=C(C)NC(SCC)=C(C#N)C1c1ccc(Cl)cc1 (configuration not stated),"inconclusive: 23.1 µM [cytotoxic, single point]",
CCC(C)[C@H]1CNC(=O)C(=O)N1CCCCC1CCCCC1 (some centres not stated),,inactive: 0.104%
CCN(CC)CCNC(=O)C1CCN(c2nn3cc(-c4ccc(F)cc4)nc3s2)CC1,"inconclusive: 23.1 µM [cytotoxic, single point]",
Cc1[nH][nH]c(=O)c1C(c1c(C)[nH][nH]c1=O)c1cn(Cc2ccc(F)cc2)c2ccccc12,"inconclusive: 23.1 µM [cytotoxic, single point]",
CN(c1ccccc1)c1nc(N)c([N+](=O)[O-])c(NC2CCCCC2)n1,"inconclusive: 29.1 µM [cytotoxic, single point]",
O=C(Nc1ccc2ccccc2c1)Nc1nnc(-c2ccc(F)cc2)s1,"inconclusive: 10.3 µM [rising, partial curve]",
O=C(CN1CCN(S(=O)(=O)N2CCCCC2)CC1)Nc1ccc(Cl)c(Cl)c1,"inconclusive: 18.4 µM [cytotoxic, single point]",
O=C(NCc1ccco1)c1ccc(CNc2c(N3CCCCC3)c(=O)c2=O)cc1,"inconclusive: 6.51 µM [rising, single point]",
CC1CCCN(C(=O)c2ccc(S(=O)(=O)N3CCC(c4nc5ccccc5s4)CC3)cc2)C1 (configuration not stated),"inconclusive: 18.4 µM [cytotoxic, single point]",
Cc1cc(C)c(C(=O)CN2C(=O)NC3(CCCCCC3)C2=O)cc1C,"inconclusive: 4.61 µM [rising, full curve]",
Cc1cc(N/N=C/c2ccc(F)cc2)nc(-n2nc(C)cc2C)n1,"inconclusive: 0.461 µM [cytotoxic, full curve]",
COc1cc(OC)cc(C(=O)N[C@H](C(=O)NC2CCCc3ccccc32)C(C)C)c1 (some centres not stated),"inconclusive: 18.4 µM [cytotoxic, single point]",
O=c1cnnc(N/N=C/c2ccc3c(c2)OCO3)[nH]1,"inconclusive: 25.9 µM [cytotoxic, single point]",
COc1ccc(NC(=O)Nc2nnc(CC(=O)NCc3ccccc3)s2)cc1,"inconclusive: 29.1 µM [cytotoxic, single point]",
Cc1cc(NC(=O)CSc2nnc(-c3cccc(Cl)c3)o2)no1,"inconclusive: 18.4 µM [cytotoxic, single point]",
O=C1C=C(c2ccccc2)OC2(CCCC2)O1,,inactive: 9.63%
COc1cccc(NC(=O)C2(C)CCN2Cc2ccc(OC)c3ccccc23)c1 (configuration not stated),"inconclusive: 20.6 µM [cytotoxic, single point]",
CN(C1CCCCC1)S(=O)(=O)c1ccc(SCC(=O)C(C)(C)C)nc1,"inconclusive: 20.6 µM [cytotoxic, single point]",
COc1cc(NC(=O)C2CCCN(c3ncnc4c3nc3n4CCCCC3)C2)cc(OC)c1OC (configuration not stated),,inactive: 7.9%
COc1ccc(NC(=O)c2cccc(N3C(=O)C4CCC(C)CC4C3=O)c2)c(OC)c1 (configuration not stated),,inactive: 0%
CCCn1c(CN2CCN(c3cccc(Cl)c3)CC2)nc2c1c(=O)n(C)c(=O)n2C,"inconclusive: 20.6 µM [cytotoxic, partial curve]",
Cc1sc2nc(CN3CCOCC3)nc(N3CCC(C(N)=O)CC3)c2c1C,"inconclusive: 23.1 µM [rising, partial curve]",

Structure (SMILES),Potency,"activity change, negative = cytotoxic"
Cc1ccc(NC(=O)/C=C/c2ccc3c(c2)OCO3)nc1,active: 7.31 µM,
O=c1[nH]c(C2CCN(S(=O)(=O)c3ccc(S(=O)(=O)NC4CC4)cc3)CC2)nc2c1nnn2Cc1cccc(F)c1,"inconclusive: 23.1 µM [cytotoxic, single point]",
COc1ccc(-c2csc3ncnc(N4CCN(S(=O)(=O)c5cccs5)CC4)c23)cc1,"inconclusive: 29.1 µM [cytotoxic, single point]",
c1ccc(CNc2nc(-c3cccs3)nc3ccccc23)cc1,,inactive: -21%
COCc1ccc([C@@H]2C[C@H]3CN(Cc4cccc(Cl)c4)C(=O)[C@]34CCCN24)o1,,inactive: 0.595%
CC(=O)N1Cc2ccccc2CC1C(=O)O (configuration not stated),"inconclusive: 18.4 µM [cytotoxic, single point]",
CC1(C)Cc2c(sc(NC(=O)Cc3ccccc3)c2C#N)CO1,"inconclusive: 0.013 µM [cytotoxic, full curve]",
Cc1onc(-c2ccccc2)c1-c1csc(N/N=C/c2ccccc2Cl)n1,"inconclusive: 29.1 µM [rising, single point]",
COc1ccc(S(=O)(=O)Nc2c(C)nc3nc(C)[nH]n3c2=O)cc1,inactive,
O=C(COc1ccc2c(c1)oc(=O)c1ccccc12)NC(Cc1ccc(Cl)cc1)C(=O)O (configuration not stated),"inconclusive: 29.1 µM [cytotoxic, single point]",
Cc1cc(C(=O)Nc2sc3c(c2C#N)CCC(C(C)(C)C)C3)no1 (configuration not stated),"inconclusive: 20.6 µM [rising, partial curve, poor fit]",
COc1ccc(OC)c(C2CC(=O)c3c([nH]c(C(=O)OC(C)C)c3C)C2)c1 (configuration not stated),active: 0.461 µM,
Cc1ccc(NC(=O)C2CC2)cc1S(=O)(=O)N1CCOCC1,"inconclusive: 14.6 µM [rising, partial curve, poor fit]",
COc1ccc(OC)c2c1sc(=NC(=O)C(C)C)n2C,,inactive: 27.2%
C/C(=N\NC(=O)c1ccccc1OCc1ccc(F)cc1)c1ccccn1,active: 11.6 µM,
CCCC(C)NC(=O)c1cccc(Oc2ccccc2)c1 (configuration not stated),"inconclusive: 23.1 µM [cytotoxic, single point]",
COc1ccc(C2=NC(c3ccncc3)=Nc3ccc(OC)cc3N2)cc1,,inactive: 2.3%
COc1ccc(C2=C(C)C(=O)N(Cc3ccc(C(=O)NCc4cccc(C)c4)cc3)S2(=O)=O)cc1,,inactive: -12.7%
Cc1cc(O)cc(O)c1/C=N/NC(=O)c1ccc2c(c1)OCCO2,"inconclusive: 29.1 µM [cytotoxic, single point]",
O=C(/C=C/c1ccc(OC(F)F)cc1)Nc1cccc(S(=O)(=O)N2CCOCC2)c1,"inconclusive: 18.4 µM [cytotoxic, single point]",
COC(=O)c1ccc(CN2CCC(Oc3cccc(C(=O)N4CCCC4)c3)CC2)cc1,"inconclusive: 16.4 µM [cytotoxic, single point]",
Brc1cccc(Cn2c(-c3cncs3)nc3ccccc32)c1,"inconclusive: 20.6 µM [cytotoxic, single point]",
N#Cc1cc2sc3nnc(-c4ccncc4)n3c2cc1C#N,active: 6.51 µM,

Structure (SMILES),Potency,"activity change, negative = cytotoxic"
CCOc1ccc(NC(=O)c2cccc3ccccc23)cc1,,inconclusive: -43.5%
CCCN1C(=S)c2ccccc2C1c1ccccc1 (configuration not stated),,inactive: -1.17%
CC1=C(C(=O)OCCNC(=O)c2ccccc2O)C(c2ccccc2[N+](=O)[O-])C(C(=O)OCC2CCCO2)=C(C)N1 (configuration not stated),"inconclusive: 29.1 µM [cytotoxic, single point]",
CCOC(=O)Cc1nnc2c(Nc3ccc(Cl)cc3)nc3nonc3n12,"inconclusive: 18.4 µM [cytotoxic, single point]",
O=C(NC(=S)Nc1nc(-c2ccccc2)cs1)c1cccs1,,inactive: 23.1%
COc1cc2ccccc2cc1C(=O)Nc1ccc2oc(-c3ccc(F)cc3Cl)nc2c1,"inconclusive: 13 µM [rising, partial curve, poor fit]",
COc1cccc(C(=O)Nc2c(C(=O)N3CCN(c4ccc(F)cc4)CC3)oc3ccccc23)c1,,inactive: 0.228%
CC(=O)Nc1ccc(Oc2nc(-c3ccccn3)nc3ccccc23)cc1,"inconclusive: 16.4 µM [cytotoxic, partial curve]",
CCOc1cc(/C=N/Nc2nc3ccccc3[nH]2)cc(Br)c1OCC(=O)N(C)C,"inconclusive: 20.6 µM [cytotoxic, single point]",
Cc1ccc2c(c1)C1CN(C)CCC1N2Sc1ccccc1[N+](=O)[O-] (configuration not stated),,inactive: -10.4%
CCCN(CC1CC1)C(=O)CSc1nnc(-c2cc(-c3cccs3)nc3ccccc23)o1,,inactive: -2.87%
CCOc1ccccc1-n1nnc(-c2nsc(NC(=O)c3ccc(C)cc3)n2)c1C,"inconclusive: 2.59 µM [cytotoxic, partial curve, poor fit]",
COc1ccc(NC(=O)CN(c2cc(C)cc(C)c2)S(=O)(=O)c2c(C)noc2C)cc1OC,,inactive: -6.86%
Oc1ccc(CNc2ccccc2F)c2cccnc12,"active: 20.6 µM and inconclusive: 29.1 µM [cytotoxic, single point]",
CCOC(=O)C1=C(c2ccccc2)NC(N)=NC1c1ccc(OCc2ccc(Cl)cc2)c(OC)c1 (configuration not stated),"inconclusive: 29.1 µM [cytotoxic, single point]",
Cc1ccc2nc(SCc3nc4c(cnn4-c4ccccc4)c(=O)[nH]3)[nH]c2c1,active: 2.59 µM,
O=C(CSc1ccccn1)N/N=C/c1cc([N+](=O)[O-])ccc1O,"inconclusive: 18.4 µM [cytotoxic, single point]",
CCn1c(=O)c(=O)[nH]c2cc(C(=O)Nc3ccc(S(=O)(=O)N4CCCC4)cc3)ccc21,"inconclusive: 13 µM [rising, partial curve, poor fit]",
CCOC(=O)N1CCC(NC(=O)c2ccc3c(c2)N(CC)CCS3)CC1,"inconclusive: 29.1 µM [cytotoxic, single point]",
Cc1ccnc(NC(=O)CCC(=O)N(CC(=O)NC(C)(C)C)Cc2ccc3c(c2)OCO3)c1,"inconclusive: 20.6 µM [rising, single point]",
Cc1ccc(S(=O)(=O)N2CCN(C(=O)C(O)c3ccccc3)CC2)cc1 (configuration not stated),,inactive: -0.269%

# Reprinted at random: 3 compounds from above
Structure (SMILES),Potency,"activity change, negative = cytotoxic"
O=C(CSc1ccccn1)N/N=C/c1cc([N+](=O)[O-])ccc1O,"inconclusive: 18.4 µM [cytotoxic, single point]",
Cc1ccc(S(=O)(=O)N2CCN(C(=O)C(O)c3ccccc3)CC2)cc1 (configuration not stated),,inactive: -0.269%
Cc1ccnc(NC(=O)CCC(=O)N(CC(=O)NC(C)(C)C)Cc2ccc3c(c2)OCO3)c1,"inconclusive: 20.6 µM [rising, single point]",

# From PubChem BioAssay AID1347075 (National Center for Advancing Translational Sciences (NCATS), 2019)
